# PubChem BioAssay AID1259405, NCATS, 2018
# Aim: 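Mouse-designed siRNAs used to find CHO productivity engineering targets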 (primary screen)
# System: Chinese hamster CHO-K1 ovary cells with stable secreted eGFP expression
# Knock-down reagent: single siRNA against mouse genes, 0.8 pmol siRNA per well (2 µl of 400 nM stock)
# Timing: 3 days
# Read-out: 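Percent of the per-plate non-targeting control median for intracellular GFP per well by laser scanning cytometry and for cell viability by ATP luminescence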
# Reading the numbers: GFP, % of control: higher = more GFP per well, higher productivity; viability (ATP), % of control: higher = more viable cells (more ATP)
# Active means: 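Called active when intracellular GFP, relative to negative control, is at or above 120%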
# Here is one part, drawn at random, of about 50,000 deposited reagents. Over the whole deposit, about 4,000 (8%) were called active. 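Mouse siRNA library applied to hamster cells; one well for each siRNA.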 Unmarked entries are inactive. Reagents against one gene are numbered here.
target,reagent no.,"GFP, % of control","viability (ATP), % of control"
Cnot6l,1,70.9,62
Cnot6l,2,53.4,41.8
Cnot6l,3,90.4,118
Or8b54,1,65.5,60.5
Or8b54,2,61.3,71
Or8b54,3,109,100
Mybl2,1,68,61.1
Mybl2,2,48.6,47.3
Mybl2,3,80.4,89.8
A430010J10Rik,1,85.3,91.8
A430010J10Rik,2,69,58.8
A430010J10Rik,3,56.5,69.2

3 neighbouring reagents from above, quoted:
target,reagent no.,"GFP, % of control","viability (ATP), % of control"
Mybl2,1,68,61.1
Mybl2,2,48.6,47.3
Mybl2,3,80.4,89.8

The list goes on.
target,reagent no.,"GFP, % of control","viability (ATP), % of control"
Fgf14,1,54.8,86.2
Fgf14,2,64.3,70.2
Fgf14,3,77.5,74.2
Defb7,1,77.4,85.3
Defb7,2,126 (active),71.7
Defb7,3,142 (active),70.6
Or13l2,1,48.3,48.8
Or13l2,2,92,89.5
Or13l2,3,57.3,40.1
Or4f59,1,78.2,68.4
Or4f59,2,40.3,32.9
Or4f59,3,64.1,109
Ffar1,1,96.4,81.2
Ffar1,2,77.2,71
Ffar1,3,187 (active),79.5
Sacs,1,95.8,76.2
Sacs,2,63.2,69.6
Sacs,3,69.9,92.1
Tmem62,1,43.7,41.1
Tmem62,2,73.5,88.6
Tmem62,3,38.7,29.8
Foxa2,1,58.5,75.3
Foxa2,2,86.1,75.5
